This is one part of the list. The main result of the screen is listed elsewhere. These columns were measured beside it and carry no call. The list favours compounds with an active or inconclusive main result. Potencies come from curve fits of mixed quality, noted in brackets.
Experiment: qHTS Assay for Modulators of Lamin A Splicing
Details: HeLa LMNA splicing GFP/RFP minigene ratio, 48 h
How it was run: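 Read-out is the ratio of GFP to DsRed2 object intensity, acquired by 488 nm laser-scanning cytometry on HeLa lamin A-EGFP minigene reporter cells. Compound incubation 48 hrs at 37 °C in Opti-MEM with 2% FBS; DMSO 0.5% final.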

[1] = measured here: RFP viability control channel
[2] = measured here: GFP splicing reporter channel

Row | SMILES | AC50 [1] | AC50 [2]
1 | CC1CN(C(=O)N2CCC(C(=O)NC3CCCCCC3)CC2)c2ccccc2O1 (centres undefined) | 0.01 µM [falling, full curve, poor fit] | –
2 | CNC(=O)C(=O)N/N=C/c1ccc(Br)cc1 | 1.26 µM [rising, single point] | –
3 | CCOC(=O)CSc1nnc(CNC(=O)c2ccc(OC)c(OC)c2)n1C | 3.55 µM [rising, partial curve, poor fit] | –
4 | O=C(Cn1cnc2ccccc21)Nc1ccc(SC(F)F)cc1 | 20 µM [rising, single point] | –
5 | CCOC(=O)C1(CCc2ccccc2)CCN(C(=O)CCc2cnccn2)CC1 | – | 2.24 µM [falling, partial curve, poor fit]
6 | O=[N+]([O-])c1ccc(C=Nc2cccc3ccccc23)s1 | 20 µM [falling, partial curve, poor fit] | 35.5 µM [falling, single point]
7 | Cc1ccc(N(Cc2cccs2)C(=O)COc2ccccc2[N+](=O)[O-])cc1 | 1.58 µM [rising, full curve, poor fit] | –
8 | COc1ccc(C2C=C(c3ccc(C)c(C)c3)Nc3ncnn32)c(OC)c1OC (centres undefined) | 3.98 µM [rising, single point] | –
9 | O=C(O)c1ccccc1-c1c2ccc(=O)cc-2oc2cc(O)ccc12 | – | 0.0251 µM [falling, full curve]
10 | CCOC(=O)c1c(NC(=O)C(C)Sc2c[nH]c3ccccc23)sc2c1CCC2 (centres undefined) | 25.1 µM [rising, single point] | 11.2 µM [rising, single point]
11 | Oc1ccccc1N=Cc1ccc[nH]1 | 12.6 µM [rising, partial curve] | –
12 | Cc1ccc2c(CC(=O)OCc3nc(N)nc(Nc4ccccc4C)n3)coc2c1 | 3.98 µM [rising, partial curve, poor fit] | 1 µM [rising, partial curve, poor fit]
13 | COc1cc(/C=C(/C#N)c2ccccc2)ccc1Oc1ccc([N+](=O)[O-])cn1 | 10 µM [rising, partial curve] | –
14 | O=C(c1ccc(-c2cc3ccccc3oc2=O)cc1)N1CCN(c2ccc(Cl)cc2[N+](=O)[O-])CC1 | 7.94 µM [rising, partial curve, poor fit] | –
15 | Cc1cc2cc(CN(Cc3ccco3)C(=S)NCC3CCCO3)c(=O)[nH]c2cc1C (centres undefined) | 15.8 µM [rising, partial curve, poor fit] | –
16 | CC(C)c1ccc(NC(=O)c2ccc(Br)o2)cc1 | 35.5 µM [rising, single point] | –

Reference: PubChem BioAssay AID1487 (National Center for Advancing Translational Sciences (NCATS), 2009)
